Results published in PMC7819943, “Rice protein-binding microarrays: a tool to detect cis-acting elements near promoter regions in rice”.
Some of the results follow.

Molecular target: T1, OsSMF1 (Oryza sativa, UniProt Q6ZLB0 1-436)
T1 sequence: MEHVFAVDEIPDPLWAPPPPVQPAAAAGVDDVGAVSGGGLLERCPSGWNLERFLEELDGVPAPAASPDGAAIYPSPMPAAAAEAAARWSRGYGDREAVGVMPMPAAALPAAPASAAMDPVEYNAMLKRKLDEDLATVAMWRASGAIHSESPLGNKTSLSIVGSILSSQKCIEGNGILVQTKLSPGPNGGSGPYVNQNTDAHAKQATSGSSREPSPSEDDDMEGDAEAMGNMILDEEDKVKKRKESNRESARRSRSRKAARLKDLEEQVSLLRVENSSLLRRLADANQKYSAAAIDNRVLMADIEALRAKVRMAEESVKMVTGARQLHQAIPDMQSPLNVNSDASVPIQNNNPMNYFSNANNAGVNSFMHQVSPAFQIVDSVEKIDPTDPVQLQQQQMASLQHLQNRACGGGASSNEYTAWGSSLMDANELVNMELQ
Experiment: protein-binding microarray (RPBM); PBS, 2% BSA, 51.3 ng/ul salmon testes DNA, 50 uM zinc acetate, 200 nM TF, 25 C, 1 h; high values mean tight binding
Details: protein: recombinant; tags: N-terminal polyhistidine and DsRed monomer fusion (pET32a); chain copies: 2; label: CyDye5-dUTP incorporated in the synthesized complementary strand; 3' TTTTT single-stranded linker to array surface; dsDNA, one strand shown
Procedure, shortened: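 Binding signal is defined as the fluorescence intensity of each feature in arbitrary units, read on an Axon 4000B scanner. Transcription factors with N-terminal polyhistidine and DsRed fusions came from E. coli BL21-CodonPlus and were purified on Ni–NTA. They were incubated at 200 nM for 1 h at 25 °C on a custom Agilent array that had been made double-stranded with Cy5-dUTP, with 50 µM zinc acetate present, and the array was washed.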

| Sequence | binding signal |
| --- | --- |
| CTTTACATTTTATTTTGTCCACATAACTCCTCTAAATATTCGGAGTCACCTAGTGCAG | 3470 fluorescence intensity (a.u.) |
| TCACTACTAGTGATGTCATTAGCCTCGAGATGGGTGATATCGGAGTCACCTAGTGCAG | 4680 fluorescence intensity (a.u.) |
| CATCATGCCCATCCAGCGTGACATCAAAAGCGGCGTCCTACGGAGTCACCTAGTGCAG | 3490 fluorescence intensity (a.u.) |
| ACGAATCCAACGCCCTTTGTCATCCACCTCGTGTCGCTCGCGGAGTCACCTAGTGCAG | 3690 fluorescence intensity (a.u.) |
| AGTCATGAGGAGCCCAACTCAGCCCACGTACACCACCTCCCGGAGTCACCTAGTGCAG | 5200 fluorescence intensity (a.u.) |
| TCTATCTTTGACTTGGAAGACAGCTCACTAATACTACCTTCGGAGTCACCTAGTGCAG | 3310 fluorescence intensity (a.u.) |
| TTCCAGTCCACCGTGGCGGTGGCGCGTCAGCTTTCCAGCCCGGAGTCACCTAGTGCAG | 12000 fluorescence intensity (a.u.) |
| CCCACCCACCCACCCACCACCACGCCACGCCACCACCTCGCGGAGTCACCTAGTGCAG | 7850 fluorescence intensity (a.u.) |
| TATCTACTAAGTCTTGACAGCCAAAGTCATGGTTTGGCGACGGAGTCACCTAGTGCAG | 3920 fluorescence intensity (a.u.) |
| GTAAGTGACTAAGTGCCACGTTGGTTTGTTGCTGAGCCAACGGAGTCACCTAGTGCAG | 15700 fluorescence intensity (a.u.) |
| AAGCTATAGAGATCTACATCAATACAATATTATGTGTGTGCGGAGTCACCTAGTGCAG | 4040 fluorescence intensity (a.u.) |
| CGTCGTCTTCAGCAGCAGCGGCGTCAGCATGCGTCGTCTTCGGAGTCACCTAGTGCAG | 5630 fluorescence intensity (a.u.) |
| CACCCACCGAGCATCTGTTTGAACCTAGAAATATTGTCTGCGGAGTCACCTAGTGCAG | 3640 fluorescence intensity (a.u.) |
| ATTTCATACCAACCGCAACCACGCCACGCCACGCCTCGACCGGAGTCACCTAGTGCAG | 5990 fluorescence intensity (a.u.) |
| AACATGAGTCAAAGCTACTCCATCTTCATGTCCCAATCCCCGGAGTCACCTAGTGCAG | 3250 fluorescence intensity (a.u.) |
| CGGATCCAACGTGGGTGCATTATTAGGTCATGTTAGTGTCCGGAGTCACCTAGTGCAG | 5720 fluorescence intensity (a.u.) |
| GACTTTCTCATATTTAACACGTGACTCTCTATTCTTCCACCGGAGTCACCTAGTGCAG | 3720 fluorescence intensity (a.u.) |
| TTAATTAATTAACGTATGTACTCAGGAATTATATATAATACGGAGTCACCTAGTGCAG | 35600 fluorescence intensity (a.u.) |
| GCTAACAAGTTGAGGGACCTTGCGTGTACTTTTCCCGCGCCGGAGTCACCTAGTGCAG | 5430 fluorescence intensity (a.u.) |
| CAATAAAGCGATCCTTAATTCCACCGTGTCAACTGGTTTACGGAGTCACCTAGTGCAG | 4830 fluorescence intensity (a.u.) |
| AGGATGTTGAGAGGTTCGTGGCACGTTGCACCACTTGTCACGGAGTCACCTAGTGCAG | 4640 fluorescence intensity (a.u.) |

| Sequence | binding signal |
| --- | --- |
| TTATCAATCGCGCAATTTGCAAATACGTCATCCTTTCAAGCGGAGTCACCTAGTGCAG | 4570 fluorescence intensity (a.u.) |
| GAGTTCATATCTGACTCTACCTTTGTACACGTCCTAAGCTCGGAGTCACCTAGTGCAG | 4920 fluorescence intensity (a.u.) |
| ATTCCTGTCACCTTCGACCGACAGCCCCATCATCATTATCCGGAGTCACCTAGTGCAG | 4410 fluorescence intensity (a.u.) |
| ATACAGGTCCACGCCTCCACGTGACAGGTGCTCGAAGAAGCGGAGTCACCTAGTGCAG | 3150 fluorescence intensity (a.u.) |
| GCTGGCCGCTGCGGTTTGACCTAGCTGACGTCGCCGCCGCCGGAGTCACCTAGTGCAG | 6370 fluorescence intensity (a.u.) |
| ACTCGTGACATGAATGGATGCATTCTGTCTGAGACAAGAACGGAGTCACCTAGTGCAG | 3360 fluorescence intensity (a.u.) |
| GTGCGCGTGGTAAGGCCTGGGACGTGGGCCAAAGCACCCCCGGAGTCACCTAGTGCAG | 4020 fluorescence intensity (a.u.) |
| GAGTTGTGACTGTGAGGCACACCAATGGCGGCCCATGGATCGGAGTCACCTAGTGCAG | 3740 fluorescence intensity (a.u.) |
| GTCCAACGGCATCTGCTCTCACTGACTCACTCATCTCTAGCGGAGTCACCTAGTGCAG | 6220 fluorescence intensity (a.u.) |
| CCCATCCCAATCACATGGACCACGGCCCGCCACGTAAGCACGGAGTCACCTAGTGCAG | 17400 fluorescence intensity (a.u.) |
| TATCCTTCCCCTGGTTATCCTTCGACTGTGGTTATCCGGGCGGAGTCACCTAGTGCAG | 10600 fluorescence intensity (a.u.) |
| TATATGCCCGTATATACACTCCGCTAACATATGGCATTGACGGAGTCACCTAGTGCAG | 3840 fluorescence intensity (a.u.) |
| GGCCTTAGATGAGTCATCCTACTTGTGGCATATATATACCCGGAGTCACCTAGTGCAG | 8130 fluorescence intensity (a.u.) |
| GCGTCGTCGTCGCCTGCACCGCGGAGGCCGCGCGCGAGGTCGGAGTCACCTAGTGCAG | 13700 fluorescence intensity (a.u.) |
| CCGAGTCAATACTGCCACGTAGCGCGCCACGTCAGCGAAACGGAGTCACCTAGTGCAG | 26300 fluorescence intensity (a.u.) |
| ACCACGAACCTGTTTTGCATTTGACAAATGCCACACACTCCGGAGTCACCTAGTGCAG | 3180 fluorescence intensity (a.u.) |
| GCCGGCCGACGGGTGGGGAGGAGACCGACGGGGCGAGACACGGAGTCACCTAGTGCAG | 20700 fluorescence intensity (a.u.) |
| GGATACGTGCCATGTCACGGTGCTGTGGGTCCCACGTGGCCGGAGTCACCTAGTGCAG | 21800 fluorescence intensity (a.u.) |
| CCCCTCGCCGGTCTGTTTGTGGGCTCTATCTAGCTCGGGGCGGAGTCACCTAGTGCAG | 3690 fluorescence intensity (a.u.) |
| ATTTGCTCTCGTCCATGGGTTAATTTCTGGATTATCACGACGGAGTCACCTAGTGCAG | 3300 fluorescence intensity (a.u.) |
| CGAATAACCCGGAACTGCCTACCGACAGCAGCGGGCAGTGCGGAGTCACCTAGTGCAG | 4360 fluorescence intensity (a.u.) |
